The values that follow come from patent US20250326851A1.

Chains of the proteins cited; added tags and fusions are not shown. Lines headed by an entry give the natural chain unless they say otherwise; changes in a name come on top. A line that says so, or that is headed by a name, gives the form on record, which may keep a tag or linker. Residues count along the entry.
Cynomolgus monkey CCR8 (G7NYJ2, form named): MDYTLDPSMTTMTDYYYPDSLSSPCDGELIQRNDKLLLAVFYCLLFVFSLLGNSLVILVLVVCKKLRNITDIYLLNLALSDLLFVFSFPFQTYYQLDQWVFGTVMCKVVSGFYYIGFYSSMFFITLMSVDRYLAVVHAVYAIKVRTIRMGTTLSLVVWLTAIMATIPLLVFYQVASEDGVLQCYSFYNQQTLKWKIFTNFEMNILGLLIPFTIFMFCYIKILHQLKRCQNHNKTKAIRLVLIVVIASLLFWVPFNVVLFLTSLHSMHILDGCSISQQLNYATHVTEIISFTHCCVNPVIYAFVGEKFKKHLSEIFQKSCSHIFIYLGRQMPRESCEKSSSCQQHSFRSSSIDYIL
UniProt P51685, residues 1-35: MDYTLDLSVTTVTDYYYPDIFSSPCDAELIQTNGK

No constants are given. Whether binding was seen depends on the method and setting. Some binding calls cover weakened binding; strength is not graded here.

The target in test [1] is Cynomolgus monkey CCR8 (Cynomolgus monkey) (UniProt G7NYJ2). Put plainly: flow cytometry and immunofluorescence on cells, 0.0032 to 50 µg/mL.
For test [2] the target is unchanged. Put plainly: method not named.
The target of test [3] is human CCR8 N-terminal peptides and fusion proteins (human) (UniProt P51685). Kind of test: SPR; CCR8 N-terminal peptides and fusion proteins, 1.56 to 200 nM. Background: Surface plasmon resonance follows binding to a sensor surface in real time, without labels.
For test [4], the target named is Cynomolgus monkey CCR8 (Cynomolgus monkey) (UniProt G7NYJ2). Put plainly: immunohistochemistry on CCR8-positive and negative cells.

B1: TPP-23411 (afucosylated) (antibody, human IgG1, lambda, V domains shown)
VH: EVQLLESGGGLVQPGGSLRLSCAASGFTFSSYGMHWVRQAPGKGLEWVSAINWNGGSTGYADSVKGRFTISRDNSKNTLYLQMNSLRAEDTAVYYCARGHHSGYDGRFFDYWGQGTLVTVSS
VL: QSVLTQPPSVSGAPGQRVTISCTGSSSNIGAGYNVHWYQQLPGTAPKLLIYTNNRRPSGVPDRFSGSKSGTSASLAISGLRSEDEADYYCAAWDASLSGWVFGGGTKLTVLG
modifications: afucosylated Fc glycan
Take B1: the binding result in test [1], in test [2] and in test [3] was “binds” in each case.

B2: TPP-23411-FITC (antibody, V domains shown)
VH: EVQLLESGGGLVQPGGSLRLSCAASGFTFSSYGMHWVRQAPGKGLEWVSAINWNGGSTGYADSVKGRFTISRDNSKNTLYLQMNSLRAEDTAVYYCARGHHSGYDGRFFDYWGQGTLVTVSS
VL: QSVLTQPPSVSGAPGQRVTISCTGSSSNIGAGYNVHWYQQLPGTAPKLLIYTNNRRPSGVPDRFSGSKSGTSASLAISGLRSEDEADYYCAAWDASLSGWVFGGGTKLTVLG
modifications: FITC-conjugated (sites not given)
Consider B2, for which the binding entry in test [4] was “binds”.
